These are yes or no findings as the source states them, for the method shown. In cells and extracts the contact can be indirect. A result given as binding can be weak or reduced; the word gives no strength. One block for each molecule: values may come before it.
What was measured:
[1] = target: T1, Drosophila Troponin I (Drosophila (endogenous in Canton-S flies)) (UniProt P36188); experiment: co-IP
T1 sequence: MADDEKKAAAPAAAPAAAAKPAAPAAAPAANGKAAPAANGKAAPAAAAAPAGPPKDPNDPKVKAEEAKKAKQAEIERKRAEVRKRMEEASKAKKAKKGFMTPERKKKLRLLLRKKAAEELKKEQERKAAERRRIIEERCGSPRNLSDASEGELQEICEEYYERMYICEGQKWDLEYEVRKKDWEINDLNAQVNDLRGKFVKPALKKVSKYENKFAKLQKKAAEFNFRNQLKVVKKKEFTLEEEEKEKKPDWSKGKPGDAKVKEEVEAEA

[2] = target: Par-3/Bazooka (Drosophila (endogenous in Canton-S flies)); experiment: co-IP

Molecule: Par-3/Bazooka
binding [1]: binds

B3: atypical PKC (aPKC) (protein, UniProt A1Z9X0 1-606)
chain: MQKMPSQILNDGSSVSLNSASMNMANTPNSITVKTAYNGQIIITTINKNISYEELCYEIRNICRFPLDQPFTIKWVDEENDPCTISTKMELDEAIRLYEMNFDSQLVIHVFPNVPQAPGLSCDGEDRSIYRRGARRWRKLYRVNGHIFQAKRFNRRAFCAYCQDRIWGLGRQGFKCIQCKLLVHKKCHKLVQKHCTDQPEPLVKERAEESSDPIPVPLPPLPYEAMSGGAEACETHDHAHIVAPPPPEDPLEPGTQRQYSLNDFELIRVIGRGSYAKVLMVELRRTRRIYAMKVIKKALVTDDEDIDWVQTEKHVFETASNHPFLVGLHSCFQTPSRLFFVIEFVRGGDLMYHMQRQRRLPEEHARFYAAEISLALNFLHEKGIIYRDLKLDNVLLDHEGHIKLTDYGMCKEGIRPGDTTSTFCGTPNYIAPEILRGEDYGFSVDWWALGVLLYEMLAGRSPFDLAGASENPDQNTEDYLFQVILEKTIRIPRSLSVRAASVLKGFLNKNPADRLGCHRESAFMDIVSHPFFKNMDWELLERKQVTPPFKPRLDSDRDLANFPPEFTGEAVQLTPDDDHVIDNIDQSEFEGFEYVNPLLMSLEDCV
binding [2]: binds

The next lines start with the values.

binding [2]: binds
B1: Drosophila Troponin I (protein, UniProt P36188 1-269)
chain: T1 sequence

binding [2]: no binding
B2: disc large (Dlg) (protein, UniProt P31007 1-970)
chain: MPVKKQEAHRALELLEDYHARLSEPQDRALRIAIERVIRIFKSRLFQALLDIQEFYELTLLDDSKSIQQKTAETLQIATKWEKDGQAVKIADFIKSSNLNRNCAYEFNNDASSNQTNQSALNQNPIANNVSAQAQAEALSRTFKSELEEILNQRMRIESDTENAKEPTVEQQQKQQQAQQRSSRSPQQQNPQQQQGSKSRSGSQTVNGDDSWLYEDIQLERGNSGLGFSIAGGTDNPHIGTDTSIYITKLISGGAAAADGRLSINDIIVSVNDVSVVDVPHASAVDALKKAGNVVKLHVKRKRGTATTPAAGSAAGDARDSAASGPKVIEIDLVKGGKGLGFSIAGGIGNQHIPGDNGIYVTKLMDGGAAQVDGRLSIGDKLIAVRTNGSEKNLENVTHELAVATLKSITDKVTLIIGKTQHLTTSASGGGGGGLSSGQQLSQSQSQLATSQSQSQVHQQQHATPMVNSQSTEPGSRYASTNVLAAVPPGTPRAVSTEDITREPRTITIQKGPQGLGFNIVGGEDGQGIYVSFILAGGPADLGSELKRGDQLLSVNNVNLTHATHEEAAQALKTSGGVVTLLAQYRPEEYNRFEARIQELKQQAALGAGGSGTLLRTTQKRSLYVRALFDYDPNRDDGLPSRGLPFKHGDILHVTNASDDEWWQARRVLGDNEDEQIGIVPSKRRWERKMRARDRSVKFQGHAAANNNLDKQSTLDRKKKNFTFSRKFPFMKSRDEKNEDGSDQEPFMLCYTQDDANAEGASEENVLSYEAVQRLSINYTRPVIILGPLKDRINDDLISEYPDKFGSCVPHTTRPKREYEVDGRDYHFVSSREQMERDIQNHLFIEAGQYNDNLYGTSVASVREVAEKGKHCILDVSGNAIKRLQVAQLYPVAVFIKPKSVDSVMEMNRRMTEEQAKKTYERAIKMEQEFGEYFTGVVQGDTIEEIYSKVKSMIWSQSGPTIWVPSKESL

From doi:10.1101/404863
